Laboratory results: the supplement of paper PMC10338343
± gives the standard deviation. Only a part is listed here, and it is no random draw. Many entries were measured with a wide error.

system: MILI (PIWIL2) piRISC loaded with L1MC piRNA (26 nt); assay: pre-steady-state target cleavage rate (min^-1); MIWI and MILI are mouse PIWI proteins and EfPiwi is from a freshwater sponge; tags in brackets are library labels; higher = faster piRNA-guided slicing of the target; settings: guide: L1MC piRNA 5'p-UAACUAAAUACUAUGCAAGCUGUAGG; auxiliary factor: 500 nM mouse GTSF1
Method: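 Cleave-'n-Seq: a library of target RNAs (target site embedded in constant flanks, ACAGCATTCCGCGTTAGTGATATCCG... 5' flank; DNA-blocked outside the site) at 0.1 nM was incubated with 1 nM active mouse MILI or MIWI piRISC (synthetic 5'-monophosphorylated piRNA guide) with or without 500 nM mouse GTSF1 at 33 °C for 1 min to 16 h. Uncleaved targets were sequenced and normalised to non-target controls, and the pooled three trials were fitted to a burst-and-steady-state model to give the pre-steady-state cleavage rate (min^-1; k3 is constrained to at most 1e-4). Sequence is the target site only; target names encode pairing extent (gX:gY) and contiguous / 1-mismatch / 2-mismatch / bulge geometry. Fits with R² ≤ 0 are excluded.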

Sequence | pre-steady-state target cleavage rate
UCCUGGAUGUCGUUGCAUAGUUAAUAGUUA | 0.00244 ± 0.0053
UCCUGCUUGUGCUUGCAUAGUAUUUAGUUA | 0.13 ± 0.017
UCCUCCUACAGCUUGCAUAGUCUUUAGUUA | 0.198 ± 0.023
UCCUGGAUCUGCUUGCAUAGUAAUUAGUUA | 0.2 ± 0.017
UCCUGGAUCAGCUUGCAUAGUAUUUUCAAA | 0.0677 ± 0.013
UCCUGCUACAGCUUGCAUAGUAAUUUAGUUA | 0.233 ± 0.023
UCCUGCUACAGCUUGGAUAGUAUUUAGUUA | 0.296 ± 0.017
UCCUCCUAGAGCUUGCAUAGUAUUAAGUUA | 0.279 ± 0.035
UCCUGGAUCAGGCUUGCAUAGUAUUUAGUUA | 0.213 ± 0.017
UCCUGGAUGAGCUUGCAAUCUAUUUACAAA | 0.000123 ± 0.048
UCCUGGAUGUGCUUGCAUAGUUAUUAGUUA | 0.00903 ± 0.0055
UCCUGGAUGUCGAUGCAUAGUAUUUAGUUU [g2:g17:cont:t1U] | 0.09 ± 0.011
UCCUGGAUCAGCUUGCAUACUAUUUAGAAA | 0.0141 ± 0.0069
UCCUGGAUGUCGAACGUAUCUUUUUAGUAA | 0.000184 ± 0.027
UCCUGGAUGUCGUUGCGUAGUAUUUAGUUA | 0.0164 ± 0.0059
UCCUGGAUGUCGAACGUAUCUAUUUCAGUUA | < 0.0001

same assay, conditions: guide: L1MC piRNA 5'p-UAACUAAAUACUAUGCAAGCUGUAGG; auxiliary factor: none (no GTSF1)

Sequence | pre-steady-state target cleavage rate
UCCUGGAUGUCGUUGCAUAGUUAAUAGUUA | 0.00434 ± 0.0022
UCCUGGAUGUGCUUGCAUAGAAUUUACUUA | 0.00154 ± 0.0043
UCCUGCUUGUGCUUGCAUAGUAUUUAGUUA | 0.00616 ± 0.0025
UCCUCCUACAGCUUGCAUAGAAUUUAGAAA | 0.000849 ± 0.0068
UCCUCCUACAGCUUGCAUAGUCUUUAGUUA | 0.00522 ± 0.0021
UCCUGGAUCUGCUUGCAUAGUAAUUAGUUA | 0.00416 ± 0.0027
UCCUGGAUCAGCUUGCAUAGUAUUUUCAAA | 0.00115 ± 0.0051
UCCUGCUACAGCUUGCAUAGUAAUUUAGUUA | 0.00525 ± 0.0024
UCCUCCUAGAGCUUGCAUAGUAUUAAGUUA | 0.00261 ± 0.0029
UCCUGGAACAGCUUGCAUAGAAUUUUGUUA | 0.00149 ± 0.0038
UCCUGGAUCAGGCUUGCAUAGUAUUUAGUUA | 0.0107 ± 0.0028
UCCUGGAUGAGCUUGCAAUCUAUUUACAAA | 0.00011 ± 0.033
UCCUGGAUGUGCUUGCAUAGUUAUUAGUUA | 0.00639 ± 0.0025
UCCUGGAUGAGCUUGCUAUGUAUUUACAAA | 0.000411 ± 0.015
UCCUGGAUGUCCUUGCUUAGUAUUUAGUAA | 0.00199 ± 0.0031
UCCUGGAACAGCUUGCAUAGUUUUUACUUA | 0.00119 ± 0.0051
UCCUGGAUGUCGAUGCAUAGUAUUUAGUUU [g2:g17:cont:t1U] | 0.00618 ± 0.0021
UCCUGGAUCAGCUUGCAUACUAUUUAGAAA | 0.000758 ± 0.0067
UCCUGGAUGUCGUUGCGUAGUAUUUAGUUA | 0.00779 ± 0.0026
UCCUGGAUGUCGAACGUAUCUAUUUCAGUUA | 0.000176 ± 0.029
UCCUGGAUGUCGUUGCAUUGUAUAUAGUUA | 0.000463 ± 0.015
UCCUGGAUCAGCUUGCAUAGUAAAAUCAAA | 0.0011 ± 0.0045
UCCUGGAUGUCGAAGCAAAGUAUUUAGUAA | 0.00019 ± 0.023
UCCUCCUACAGCUUGCAUAGUAUUUAGAAA | 0.00239 ± 0.0035
